{"source": "PubChem BioAssay AID1259405, NCATS | 2018", "purpose": "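Silenced genes that increase secreted GFP made by CHO cells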 (primary screen)", "cells": "Chinese hamster CHO-K1 ovary cells with stable secreted eGFP expression", "reagents": "single siRNA against mouse genes, 0.8 pmol siRNA per well (2 µl of 400 nM stock)", "timing": "3 days", "detection": "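Percent of the per-plate non-targeting control median for intracellular GFP per well by laser scanning cytometry and for cell viability by ATP luminescence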", "direction": "GFP, % of control: higher = more GFP per well, higher productivity; viability (ATP), % of control: higher = more viable cells (more ATP)", "hit rule": "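Called active when intracellular GFP, relative to negative control, is at or above 120%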", "note": "The deposit covers about 50,000 reagents; below is an unselected part. Of all reagents, about 4,000 (8%) were called active. 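Mouse siRNA library applied to hamster cells; one well for each siRNA.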 Entries without a mark were called inactive. Reagents against one gene are numbered here. Reagent sequences are not shown."}
{"gene": "Dcaf17 (DDB1 and CUL4 associated factor 17)", "reagent no.": 1, "GFP, % of control": 31.2, "viability (ATP), % of control": 51.1}
{"gene": "Dcaf17 (DDB1 and CUL4 associated factor 17)", "reagent no.": 2, "GFP, % of control": 77.8, "viability (ATP), % of control": 56.4}
{"gene": "Dcaf17 (DDB1 and CUL4 associated factor 17)", "reagent no.": 3, "GFP, % of control": 74.4, "viability (ATP), % of control": 82.3}
{"gene": "Bcl2l10 (Bcl2-like 10)", "reagent no.": 1, "GFP, % of control": 53, "viability (ATP), % of control": 50.5}
{"gene": "Bcl2l10 (Bcl2-like 10)", "reagent no.": 2, "GFP, % of control": 53.1, "viability (ATP), % of control": 55.9}
{"gene": "Stap1 (signal transducing adaptor family member 1)", "reagent no.": 1, "GFP, % of control": 84.5, "viability (ATP), % of control": 60.3}
{"gene": "Stap1 (signal transducing adaptor family member 1)", "reagent no.": 2, "GFP, % of control": 88.7, "viability (ATP), % of control": 103}
{"gene": "Stap1 (signal transducing adaptor family member 1)", "reagent no.": 3, "GFP, % of control": 46.8, "viability (ATP), % of control": 67.5}
{"gene": "Supt7l (SPT7-like, STAGA complex gamma subunit)", "reagent no.": 1, "GFP, % of control": 101, "viability (ATP), % of control": 80}
{"gene": "Supt7l (SPT7-like, STAGA complex gamma subunit)", "reagent no.": 2, "GFP, % of control": 60.5, "viability (ATP), % of control": 72.4}
{"gene": "Supt7l (SPT7-like, STAGA complex gamma subunit)", "reagent no.": 3, "GFP, % of control": 84.4, "viability (ATP), % of control": 78.3}
{"gene": "Or5ac25 (olfactory receptor family 5 subfamily AC member 25)", "reagent no.": 1, "GFP, % of control": 52.7, "viability (ATP), % of control": 71}
{"gene": "Or5ac25 (olfactory receptor family 5 subfamily AC member 25)", "reagent no.": 2, "GFP, % of control": 57.3, "viability (ATP), % of control": 46}
{"gene": "Or5ac25 (olfactory receptor family 5 subfamily AC member 25)", "reagent no.": 3, "GFP, % of control": 43.3, "viability (ATP), % of control": 63.8}
{"gene": "Sms (spermine synthase)", "reagent no.": 1, "GFP, % of control": 68.8, "viability (ATP), % of control": 71.9}
{"gene": "Sms (spermine synthase)", "reagent no.": 2, "GFP, % of control": "121 (active)", "viability (ATP), % of control": 136}
{"gene": "Sms (spermine synthase)", "reagent no.": 3, "GFP, % of control": 103, "viability (ATP), % of control": 97.4}
{"gene": "Klk1b5 (kallikrein 1-related peptidase b5)", "reagent no.": 1, "GFP, % of control": 85.3, "viability (ATP), % of control": 45.7}
{"gene": "Klk1b5 (kallikrein 1-related peptidase b5)", "reagent no.": 2, "GFP, % of control": 89.9, "viability (ATP), % of control": 77.7}
{"gene": "Klk1b5 (kallikrein 1-related peptidase b5)", "reagent no.": 3, "GFP, % of control": 72.7, "viability (ATP), % of control": 83.6}
{"gene": "Cenpp (centromere protein P)", "reagent no.": 1, "GFP, % of control": 70.4, "viability (ATP), % of control": 65.1}
{"gene": "Cenpp (centromere protein P)", "reagent no.": 2, "GFP, % of control": 105, "viability (ATP), % of control": 64.5}
{"gene": "Cenpp (centromere protein P)", "reagent no.": 3, "GFP, % of control": 64.3, "viability (ATP), % of control": 83}
{"gene": "Ackr1 (atypical chemokine receptor 1)", "reagent no.": 1, "GFP, % of control": 102, "viability (ATP), % of control": 110}
{"gene": "Ackr1 (atypical chemokine receptor 1)", "reagent no.": 2, "GFP, % of control": "186 (active)", "viability (ATP), % of control": 113}
{"gene": "Or1l4 (olfactory receptor family 1 subfamily L member 4)", "reagent no.": 1, "GFP, % of control": 34.9, "viability (ATP), % of control": 40.9}
{"gene": "Or1l4 (olfactory receptor family 1 subfamily L member 4)", "reagent no.": 2, "GFP, % of control": 71, "viability (ATP), % of control": 75.8}
{"gene": "Or1l4 (olfactory receptor family 1 subfamily L member 4)", "reagent no.": 3, "GFP, % of control": 46.6, "viability (ATP), % of control": 64.9}
{"gene": "Mpc2", "reagent no.": 1, "GFP, % of control": 83.3, "viability (ATP), % of control": 68.6}
{"gene": "Mpc2", "reagent no.": 2, "GFP, % of control": 73.1, "viability (ATP), % of control": 47}
{"gene": "Mpc2", "reagent no.": 3, "GFP, % of control": 74.3, "viability (ATP), % of control": 82.8}
{"gene": "Gpr139 (G protein-coupled receptor 139)", "reagent no.": 1, "GFP, % of control": 71, "viability (ATP), % of control": 72}
{"gene": "Gpr139 (G protein-coupled receptor 139)", "reagent no.": 2, "GFP, % of control": 83, "viability (ATP), % of control": 99.8}
{"gene": "Gpr139 (G protein-coupled receptor 139)", "reagent no.": 3, "GFP, % of control": 40.5, "viability (ATP), % of control": 56.7}
{"gene": "Rgma (repulsive guidance molecule family member A)", "reagent no.": 1, "GFP, % of control": 68.3, "viability (ATP), % of control": 66.4}
{"gene": "Rgma (repulsive guidance molecule family member A)", "reagent no.": 2, "GFP, % of control": 44, "viability (ATP), % of control": 52}
{"gene": "Rgma (repulsive guidance molecule family member A)", "reagent no.": 3, "GFP, % of control": 69.9, "viability (ATP), % of control": 79.7}
{"gene": "Ckap4 (cytoskeleton-associated protein 4)", "reagent no.": 1, "GFP, % of control": 95.5, "viability (ATP), % of control": 90.9}
{"gene": "Ckap4 (cytoskeleton-associated protein 4)", "reagent no.": 2, "GFP, % of control": 98.9, "viability (ATP), % of control": 66.1}
{"gene": "Ckap4 (cytoskeleton-associated protein 4)", "reagent no.": 3, "GFP, % of control": 93.3, "viability (ATP), % of control": 99.6}
